Measurements: the supplement of paper PMC4604168 (melanoma cell lines)
Some of the results follow. Single values are uncertain, as repeats are few or missing.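 Imaging used 1,536-well plates; nuclei positive for cleaved PARP by antibody were divided by total DNA-stained nuclei to yield the apoptosis fraction. Doses for screening kept most cells viable, and cell lines differ markedly in resting and induced cleaved-PARP levels.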

Legend:
Experiment in all cases: cleaved PARP positive nuclei fraction relative to DMSO control; melanoma cells; higher = more apoptosis
Conditions in all cases: library dose: low library concentration; 72 h
501Mel = test system: 501Mel
A101D = test system: A101D
A2058 = test system: A2058
A375 = test system: A375
C32 = test system: C32
CBRC013 = test system: CBRC013 (line from a melanoma biopsy)
CBRC014 = test system: CBRC014 (line from a melanoma biopsy)
CBRC016 = test system: CBRC016 (line from a melanoma biopsy)
CBRC017 = test system: CBRC017 (line from a melanoma biopsy)
CBRC034 = test system: CBRC034 (line from a melanoma biopsy)
COLO792 = test system: COLO792
COLO800 = test system: COLO800
COLO829 = test system: COLO829
G361 = test system: G361
IPC-298 = test system: IPC-298
IST-MEL1 = test system: IST-MEL1
LB2518-MEL = test system: LB2518-MEL
LOXIMVI = test system: LOXIMVI

Row | Structure (SMILES) | cleaved PARP positive nuclei fraction (501Mel) | cleaved PARP positive nuclei fraction (A101D) | cleaved PARP positive nuclei fraction (A2058) | cleaved PARP positive nuclei fraction (A375) | cleaved PARP positive nuclei fraction (C32) | cleaved PARP positive nuclei fraction (CBRC013) | cleaved PARP positive nuclei fraction (CBRC014) | cleaved PARP positive nuclei fraction (CBRC016) | cleaved PARP positive nuclei fraction (CBRC017) | cleaved PARP positive nuclei fraction (CBRC034) | cleaved PARP positive nuclei fraction (COLO792) | cleaved PARP positive nuclei fraction (COLO800) | cleaved PARP positive nuclei fraction (COLO829) | cleaved PARP positive nuclei fraction (G361) | cleaved PARP positive nuclei fraction (IPC-298) | cleaved PARP positive nuclei fraction (IST-MEL1) | cleaved PARP positive nuclei fraction (LB2518-MEL) | cleaved PARP positive nuclei fraction (LOXIMVI)
1 | C[C@@H]1CCN(C(=O)CC#N)C[C@@H]1N(C)c1ncnc2[nH]ccc12 + CCCCCCCCCCCC1=C(O)C(=O)C=C(O)C1=O [Embelin] (first compound 1 µM, partner dose 1.2 µM) | 106% | 105% | 87.3% | 444% | 192% | 44% | 96% | 36% | 88.3% | 187% | 130% | 119% | 62.6% | 124% | 267% | 54.2% | 94.4% | 155%
2 | Nc1cccc2c1CN(C1CCC(=O)NC1=O)C2=O (configuration not stated) [lenalidomide] + Oc1nc(-c2ccc(C(F)(F)F)cc2)nc2c1CSCC2 [XAV939] (first compound 1 µM, partner dose 2 µM) | 188% | 147% | 146% | 74.8% | 65.8% | 146% | 93.2% | 60.2% | 87.6% | 38.9% | 80.7% | 217% | 90.1% | 101% | 101% | 135% | 75.5% | 51.7%
3 | OCCn1cc(-c2cnc3nnn(Cc4ccc5ncccc5c4)c3n2)cn1 + Oc1nc(-c2ccc(C(F)(F)F)cc2)nc2c1CSCC2 [XAV939] (first compound 1 µM, partner dose 2 µM) | 70.9% | 107% | 130% | 66.7% | 120% | 57.1% | 94.1% | 80.5% | 69.1% | 45.1% | 201% | 188% | 32.5% | 228% | 40.1% | 271% | 84.6% | 425%
4 | COCC[n+]1c2c(n(Cc3cnccn3)c1C)C(=O)c1ccccc1C2=O + Cn1cc(/C=C2\C(=O)Nc3cccnc32)c2ccccc21 [GW441756] (first compound 0.0004 µM, partner dose 0.4 µM) | 166% | 199% | 229% | 261% | 50.3% | 52.8% | 100% | 45.8% | 322% | 49% | 102% | 129% | 176% | 86.5% | 44.4% | 133% | 159% | 123%
